PubChem BioAssay AID743454 – Peter MacCallum Cancer Centre | 2014
The deposit covers about 18,000 reagents; below is an unselected part. 450 of them (2.5%) were called active. 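Single biological run; no consistent viability z cut-off exists, so the class columns, not z-scores, define the calls.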 A number with no mark means an inactive call.

Assay: 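Genes whose loss kills vorinostat-resistant colon cancer cells under vorinostat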 (primary screen)
Cell system: human HCT116-VR colon cancer cells, selected for vorinostat resistance
Reagent: siRNA pool against human genes, 40 nM siRNA pool
Timing: vorinostat for 24 h, read-out about 72 h after transfection
Challenge: vorinostat at 2.5 µM final
Detection: 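Two measures, CellTiter-Fluor viability and luminescent caspase 3/7 activity, each as fold change against same-plate mock wells, mean of duplicates, then screen-wide robust z-score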
Scale: viability robust z-score: higher = more viable cells than screen typical; caspase robust z-score: higher = more caspase 3/7 activity than screen typical
Rule for the call: 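Hits are knock-downs in viability class RV1/RV2 or caspase class CA1/CA2, excluding ones that killed cells in the no-drug cell-count arm; hits then retested with single siRNAs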

RHEX (regulator of hemoglobinization and erythroid cell expansion)
- viability hit class: no change
- caspase hit class: no change
- viability robust z-score: -2.12
- caspase robust z-score: -0.7

ERN2 (endoplasmic reticulum to nucleus signaling 2)
- viability hit class: no change
- caspase hit class: no change
- viability robust z-score: 0.38
- caspase robust z-score: -1

FOXP2 (forkhead box P2)
- viability hit class: no change
- caspase hit class: no change
- viability robust z-score: -0.08
- caspase robust z-score: 1.98

PARP9 (poly(ADP-ribose) polymerase family member 9)
- viability hit class: no change
- caspase hit class: no change
- viability robust z-score: -0.29
- caspase robust z-score: -0.91

CEP55 (centrosomal protein 55)
- viability hit class: no change
- caspase hit class: no change
- viability robust z-score: -1.32
- caspase robust z-score: -0.18

KRT34 (keratin 34)
- viability hit class: no change
- caspase hit class: no change
- viability robust z-score: 0.68
- caspase robust z-score: 0.55

SLC51A
- viability hit class: no change
- caspase hit class: no change
- viability robust z-score: 0.4
- caspase robust z-score: 1.99

CD81 (CD81 molecule)
- viability hit class: no change
- caspase hit class: no change
- viability robust z-score: 0.39
- caspase robust z-score: 1.81

CD72 (CD72 molecule)
- viability hit class: no change
- caspase hit class: no change
- viability robust z-score: 1.27
- caspase robust z-score: -0.34

EFEMP2 (EGF-like fibulin extracellular matrix protein 2)
- viability hit class: no change
- caspase hit class: no change
- viability robust z-score: 0.62
- caspase robust z-score: 4.78

NRSN2 (neurensin 2)
- viability hit class: no change
- caspase hit class: no change
- viability robust z-score: 0.86
- caspase robust z-score: -0.29

SIK1 (salt inducible kinase 1)
- viability hit class: no change
- caspase hit class: no change
- viability robust z-score: 0.5
- caspase robust z-score: 0.33

CDHR5 (cadherin related family member 5)
- viability hit class: no change
- caspase hit class: no change
- viability robust z-score: -0.49
- caspase robust z-score: 2.12

ACADL (acyl-CoA dehydrogenase long chain)
- viability hit class: no change
- caspase hit class: no change
- viability robust z-score: -1.27
- caspase robust z-score: 4.82

OR5B21 (olfactory receptor family 5 subfamily B member 21)
- viability hit class: no change
- caspase hit class: no change
- viability robust z-score: 0.38
- caspase robust z-score: 0.5

CLEC4F (C-type lectin domain family 4 member F)
- viability hit class: no change
- caspase hit class: no change
- viability robust z-score: -0.66
- caspase robust z-score: -1.19

AHCYL2 (adenosylhomocysteinase like 2)
- viability hit class: no change
- caspase hit class: no change
- viability robust z-score: 1.31
- caspase robust z-score: -0.72

POLR2K (RNA polymerase II, I and III subunit K)
- viability hit class: no change (active)
- caspase hit class: CA2 (caspase activation)
- viability robust z-score: -2.54
- caspase robust z-score: 6.07

ZNF155 (zinc finger protein 155)
- viability hit class: no change
- caspase hit class: no change
- viability robust z-score: -0.19
- caspase robust z-score: -0.26

DES (desmin)
- viability hit class: no change
- caspase hit class: no change
- viability robust z-score: -2.06
- caspase robust z-score: 4.15

HFE (homeostatic iron regulator)
- viability hit class: no change
- caspase hit class: no change
- viability robust z-score: 0.6
- caspase robust z-score: 1.8

In a second layout: 2 of the entries above
| gene | viability hit class | caspase hit class | viability robust z-score | caspase robust z-score |
| --- | --- | --- | --- | --- |
| CD81 (CD81 molecule) | no change | no change | 0.39 | 1.81 |
| CD72 (CD72 molecule) | no change | no change | 1.27 | -0.34 |
